Measurements published in PMC6650552.
Where two headings read alike, the source gives them in different places. Results are given in words; binding and its absence hold for the method and conditions named. In cells and extracts the contact can be indirect. Here binding means that the protein was enriched with, or labelled near, the bait; the list need not be complete. Sequences can lack the tags named with a protein.

Protein sequences, listed by entry. Tags and fused reporters are not part of them. Residues count along the entry.
UniProt Q9I4X0: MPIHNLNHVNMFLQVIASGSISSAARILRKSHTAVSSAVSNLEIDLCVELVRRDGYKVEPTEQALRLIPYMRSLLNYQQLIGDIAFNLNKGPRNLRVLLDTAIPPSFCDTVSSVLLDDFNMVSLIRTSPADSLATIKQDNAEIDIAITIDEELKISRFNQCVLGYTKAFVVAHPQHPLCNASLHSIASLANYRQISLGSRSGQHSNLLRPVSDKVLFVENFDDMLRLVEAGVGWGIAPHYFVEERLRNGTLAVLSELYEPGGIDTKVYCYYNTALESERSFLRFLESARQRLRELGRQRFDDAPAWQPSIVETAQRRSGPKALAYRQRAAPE
UniProt P14756, residues 24-498: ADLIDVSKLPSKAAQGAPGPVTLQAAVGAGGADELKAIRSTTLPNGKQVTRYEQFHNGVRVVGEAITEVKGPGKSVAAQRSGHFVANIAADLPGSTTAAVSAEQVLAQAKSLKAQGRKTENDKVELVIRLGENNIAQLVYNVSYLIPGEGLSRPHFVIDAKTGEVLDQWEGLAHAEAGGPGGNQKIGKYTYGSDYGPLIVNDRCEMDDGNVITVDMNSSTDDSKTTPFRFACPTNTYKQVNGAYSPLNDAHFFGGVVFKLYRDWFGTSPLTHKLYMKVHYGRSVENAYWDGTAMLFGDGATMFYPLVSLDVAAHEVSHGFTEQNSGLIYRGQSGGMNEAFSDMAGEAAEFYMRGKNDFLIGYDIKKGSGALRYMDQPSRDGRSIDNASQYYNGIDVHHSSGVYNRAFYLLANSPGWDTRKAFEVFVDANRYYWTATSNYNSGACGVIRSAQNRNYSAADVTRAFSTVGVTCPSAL

T1: GST-AnvM (P. aeruginosa) (UniProt Q9HXD2)
T1 sequence: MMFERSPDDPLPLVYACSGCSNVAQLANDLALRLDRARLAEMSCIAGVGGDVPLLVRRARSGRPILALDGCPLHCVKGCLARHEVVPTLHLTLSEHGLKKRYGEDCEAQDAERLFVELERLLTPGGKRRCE

B1: Anr (protein, UniProt P23926 1-244)
chain: MAETIKVRALPQAHCKDCSLAPLCLPLSLTVEDMDSLDEIVKRGRPLKKGEFLFRQGDPFGSVFAVRSGALKTFSITDAGEEQITGFHLPSELVGLSGMDTETYPVSAQALETTSVCEIPFERLDELSEQLPQLRRQLMRLMSREIRDDQQMMLLLSKKTADERIATFLVNLSARFRARGFSAQQFRLAMSRNEIGNYLGLAVETVSRVFTRFQQNGLISAEGKEVHILDSIELCALAGGQLEG

How the values were obtained:
[1] = molecular target: T1, GST-AnvM (P. aeruginosa); assay: affinity purification with mass spectrometry; GST pulldown screen: cleared lysate of stationary-phase P. aeruginosa cells incubated with 40 ug purified GST-AnvM overnight at 4°C, glutathione-Sepharose beads, washed five times with TEN buffer (100 mM Tris-Cl pH 8.0, 10 mM EDTA, 300 mM NaCl); bands cut from a Coomassie-stained gel, trypsin, MALDI mass spectrometry; only the target purified
[2] = molecular target: T1, GST-AnvM (P. aeruginosa); assay: as above; remark: listed apart in the source

Molecule	binding [1]	binding [2]
MvfR (from UniProt Q9I4X0 1-332)	binds	
LasB (from UniProt P14756 24-498)	binds	
B1		binds
